# According to PubChem BioAssay AID504467 (National Center for Advancing Translational Sciences (NCATS), 2011):
# In all, about 330,000 compounds went through this assay and about 7,700 (2.3%) were called active. This list was built around the results that the source calls inconclusive (neither active nor inactive); the mix of calls is not that of the screen. The call rests on the fitted dose curve; in most records, active means well fitted inhibition curve with a large enough effect; inconclusive means small, poorly fitted or top-dose-only effect, or effect the other way; inactive means flat fitted curve, though single readings scatter. Potencies of inconclusive entries are doubtful fits and often do not repeat.
# Assay: qHTS screen for small molecules that inhibit ELG1-dependent DNA repair in human embryonic kidney (HEK293T) cells expressing luciferase-tagged ELG1; further: nearly all actives have a fitted effect of over 55% in size
# Conditions: HEK293T ELG1-luciferase reporter, luminescence, 16 h, DNA damage induced by 5-fluorouridine; series mostly up to 46.1 µM
# Summary of the method: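 HEK293T cells expressing luciferase-tagged ELG1 (2,000/well) received 5-Fluorouridine plus compound or DMSO for 16 hr at 37 °C. Luciferase was read by ONE-Glo luminescence after 30 min at room temperature.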
# Potency means the concentration at half of the fitted maximal effect.
row,Compound,Potency
1,Cc1nn(-c2ccccc2)c(Cl)c1/C=C(\C#N)C(=O)NC(C)C,"inconclusive: 29.1 µM [inhibitor, single point]"
2,CN(CC(=O)N1CCN(c2ccccn2)CC1)S(=O)(=O)c1ccc(Br)cc1,inactive
3,COc1ccccc1C(=O)OCc1c(-c2ccccc2)ncc2ccccc12,active: 16.4 µM
4,O=C(NCCc1ccccc1)C1CCN(S(=O)(=O)N2CCOCC2)CC1,"inconclusive: 11.6 µM [activator, partial curve, poor fit]"
5,CC(C)(C)NC(=O)C1CC1(c1ccccc1)c1ccccc1 (configuration not stated),"inconclusive: 14.6 µM [inhibitor, partial curve]"
6,CCc1nnc(NC(=O)C2(C)COC(c3ccc(OC)cc3)OC2)s1 (configuration not stated),"inconclusive: 25.9 µM [activator, single point]"
7,Cc1cc(=O)oc(C)c1C(=O)OCC(=O)c1ccc(Cl)cc1,"inconclusive: 6.31 µM [activator, single point]"
8,O=C(c1ccco1)N1CCN(C(=O)c2cc3sccc3n2Cc2ccccc2)CC1,inactive
9,COc1cccc(C(=O)C2CCCN(Cc3cccn3-c3ccccn3)C2)c1 (configuration not stated),inactive
10,COc1ccc(-c2oc3ncnc(NCCCN(C)C)c3c2-c2ccc(OC)cc2)cc1,inactive
11,CCOC(=O)c1c(C)[nH]c2cc(Br)c(O)cc12,"inconclusive: 11.6 µM [activator, partial curve]"
12,CCc1cccc(CC)c1-n1c(SCC(=O)N2CCc3ccccc3C2)nnc1-c1cccnc1,"inconclusive: 29.1 µM [inhibitor, single point]"
13,CCOc1cc(Cl)c(NC(=O)CC)cc1OCC,inactive
14,CCc1ccc2oc(-c3cc(N)ccc3O)nc2c1,"inconclusive: 2.59 µM [activator, partial curve]"
15,O=C(NCC(c1cccs1)N1CCOCC1)c1cc(Cl)ccc1[N+](=O)[O-] (configuration not stated),inactive
16,Cc1nc2ccccc2n1CC(=O)NC1CCCCCC1,active: 14.6 µM
17,CC(=O)c1ccc(-c2ccc([C@H]3[C@@H]4C=CCC[C@@]4(C)C(=O)N3Cc3ccccc3)c(F)c2)cc1,"inconclusive: 14.6 µM [inhibitor, partial curve]"
18,O=c1c2ccccc2nnn1CSc1ccccc1,"inconclusive: 2.31 µM [activator, full curve]"
19,COc1ccc(-c2noc(CN(C)C(=O)c3ccc4c(c3)OCO4)n2)cc1OC,"inconclusive: 29.1 µM [inhibitor, partial curve, poor fit]"
20,O=S(=O)(Nc1ccc(S(=O)(=O)Nc2nccs2)cc1)c1ccc2c(c1)OCCO2,"inconclusive: 14.6 µM [activator, partial curve]"
21,CCOc1ccc(CNc2ccc3c(c2)ncn3C)cc1,inactive
22,O=C(Nc1ccc(OC(F)F)c(Cl)c1)c1cccc(OC(F)F)c1,"inconclusive: 18.4 µM [inhibitor, single point]"
23,CC(Oc1cccc(F)c1)c1ccnc2nc(/N=C/N(C)C)nn12 (configuration not stated),inactive
24,CCOc1cc(/C=N/NC(=O)CN(CCc2ccccc2)S(=O)(=O)c2ccc(NC(C)=O)cc2)ccc1O,active: 25.9 µM

row,Compound,Potency
1,CC1CCN(C(=O)c2[nH]cnc2C(=O)Nc2nccs2)CC1,inactive
2,CCn1c(SCC(=O)Nc2ccc(OC)c(OC)c2)nnc1-c1c[nH]c2ccccc12,"inconclusive: 29.1 µM [inhibitor, single point]"
3,O=C(Cc1cccs1)N1CCN(c2ccc([N+](=O)[O-])cc2)CC1,"inconclusive: 18.3 µM [inhibitor, single point]"
4,COc1ccc(S(=O)(=O)N[C@@H](Cc2ccccc2)C(=O)N2CC[C@@]3(O)CCCC[C@H]3C2)cc1,"inconclusive: 29.1 µM [inhibitor, single point]"
5,O=C(OCC(=O)c1c[nH]c2ccccc12)c1ccc([N+](=O)[O-])s1,"inconclusive: 6.51 µM [inhibitor, single point]"
6,O=c1[nH]nc(SCc2nc3ccccc3s2)n1C1CC1,"inconclusive: 20.6 µM [activator, partial curve]"
7,CCOc1ccccc1CNC(=O)c1ccc(Sc2ccc(Cl)cc2)c(NC(C)=O)c1,"inconclusive: 16.4 µM [inhibitor, single point]"
8,COc1cccc(C2C(C(=O)Nc3ccc(C)cc3C)=C(C)Nc3ncnn32)c1OC (configuration not stated),inactive
9,Cc1ccc(CNC(=O)C(=O)NCC2OCCN2S(=O)(=O)c2ccc(C)cc2)cc1 (configuration not stated),"inconclusive: 18.3 µM [inhibitor, partial curve, poor fit]"
10,CN(C)CCCN(C(=O)c1ccc(S(=O)(=O)N(C)C)cc1)c1nc2ccc(F)cc2s1,"inconclusive: 25.9 µM [activator, single point]"
11,Clc1ccc(-c2nc(-c3cnccn3)no2)cc1,"inconclusive: 6.51 µM [activator, partial curve]"
12,CN1CCN(CCOc2ccc(Cl)c(Cl)c2)CC1,inactive
13,CC1CC(Nc2ccccc2)c2ccccc2N1C(=O)c1ccncc1 (configuration not stated),"inconclusive: 23.1 µM [inhibitor, single point]"
14,CCOc1ccc(N2C(=O)C3=C(C(c4ccc(Cl)cc4)=NCCN3)C2c2cccnc2)cc1 (configuration not stated),inactive
15,CSc1ccc(S(=O)(=O)NCCSC(C)(C)C)cc1,"inconclusive: 13 µM [inhibitor, partial curve, poor fit]"
16,O=C(COC(=O)c1n[nH]c2ccccc12)Nc1ccccc1Br,"inconclusive: 18.3 µM [activator, partial curve]"
17,COc1ccc(NS(=O)(=O)c2ccc3c(c2)NC(=O)CO3)c(OC)c1,inactive
18,CCC(=O)NC(=S)Nc1ccccc1C(=O)NC1CCCCC1,inactive
19,CC(C)c1ccc(NC(=O)c2csnn2)cc1,"inconclusive: 3.66 µM [activator, partial curve]"
20,Cc1ccc(C)c(OCc2nc(-c3cccnc3)no2)c1,"inconclusive: 18.4 µM [activator, single point]"
21,CCCCNC(=O)Nc1ccccc1Br,"inconclusive: 29.1 µM [activator, partial curve, poor fit]"
22,Cn1c(=O)cc(OCCCC(=O)N2CCCCC2)c2ccccc21,"inconclusive: 13 µM [activator, partial curve]"
23,O=C1c2ccccc2NC(c2ccc(F)cc2)N1Cc1ccccc1 (configuration not stated),inactive
24,COc1ccc(Cc2nnc(NC(=O)c3cccc([N+](=O)[O-])c3)s2)cc1,inactive

# A section from the list above, as a working copy:
row,Compound,Potency
10,COc1ccc(-c2oc3ncnc(NCCCN(C)C)c3c2-c2ccc(OC)cc2)cc1,inactive
11,CCOC(=O)c1c(C)[nH]c2cc(Br)c(O)cc12,"inconclusive: 11.6 µM [activator, partial curve]"
12,CCc1cccc(CC)c1-n1c(SCC(=O)N2CCc3ccccc3C2)nnc1-c1cccnc1,"inconclusive: 29.1 µM [inhibitor, single point]"

# (more compounds)

row,Compound,Potency
1,CN(C)CCCN(C(=O)c1ccco1)c1nc2ccc(F)cc2s1,inactive
2,Cc1ccc(C)c(N(C)C(=O)c2coc(=O)c3ccccc23)c1,inactive
3,COc1cnc(-c2ccccn2)nc1Oc1ccc(C(C)(C)C)cc1,"inconclusive: 25.9 µM [inhibitor, partial curve, poor fit]"
4,O=C(/C=C/c1ccc2c(c1)OCO2)N1CCN(c2ccccc2F)CC1,inactive
5,O=C1c2ccccc2C2=Nc3ccccc3SC(c3ccc(Cl)cc3)C12 (configuration not stated),"inconclusive: 32.6 µM [inhibitor, single point]"
6,O=c1c2c3c(sc2ncn1/N=C/c1ccc(Br)o1)CCCC3,inactive
7,C=CCn1c(C)cc(C(=O)COc2nncc3ccccc23)c1C,"inconclusive: 8.2 µM [activator, partial curve]"
8,O=C(NC1CC2CCCC(C1)N2Cc1ccccc1)C1CCCCC1 (configuration not stated),inactive
9,Cc1ccc(S(=O)(=O)N2CCC(C(=O)OCC(=O)NC(C)c3ccc(F)cc3)CC2)cc1C (configuration not stated),inactive
10,O=C(c1cc(S(=O)(=O)N2CCOCC2)ccc1F)N(CCc1ccccc1)Cc1ccccc1,inactive
11,O=C1N=C(N2CCCC2)S/C1=C\C=C\c1ccccc1,"inconclusive: 1.46 µM [activator, partial curve]"
12,COc1cccc(-n2c(=O)c3c(C)c(C(=O)N(C)C)sc3n(CC(=O)NCCc3ccc(OC)c(OC)c3)c2=O)c1,"inconclusive: 1.16 µM [inhibitor, full curve, poor fit]"
13,O=C(CSc1ccccn1)Nc1ccc(NC(=O)CSc2ccccn2)cc1,inactive
14,COc1cc(S(=O)(=O)Nc2ccccc2)ccc1N=Cc1c(C)[nH]n(-c2ccc(C)cc2)c1=O,"inconclusive: 14.6 µM [inhibitor, partial curve]"
15,CCS(=O)(=O)N1CCC(C(=O)Nc2cc([N+](=O)[O-])ccc2C)CC1,"inconclusive: 0.461 µM [activator, full curve, poor fit]"
16,Nc1nc(-c2ccc(F)cc2)cs1,"inconclusive: 20.6 µM [activator, partial curve]"
17,CCNC(=O)C1CC(=O)N(Cc2ccc3c(c2)OCO3)C(=Nc2ccc(OCC)cc2)S1 (configuration not stated),"inconclusive: 32.6 µM [activator, partial curve, poor fit]"
18,COCCNC(=O)/C(C#N)=C/c1c(N2CCCCCC2)nc2c(C)cccn2c1=O,inactive
19,S=C(NCCc1ccc(Cl)cc1)NC1CCCCC1,"inconclusive: 7.3 µM [activator, partial curve]"
20,Cc1c(C(=O)NCCc2ccc(Cl)cc2)sc2nc3n(c(=O)c12)CCC3,"inconclusive: 29.1 µM [inhibitor, single point]"
21,Cc1ccccc1Nc1nnc(SCC(=O)NC(=O)Nc2ccc3c(c2)OCCO3)s1,"inconclusive: 18.4 µM [activator, partial curve]"
22,CC(Sc1nnc(N)s1)C(=O)Nc1ccc2c(c1)OCO2 (configuration not stated),inactive
23,C[n+]1ccc(/C=C/c2ccccc2O)c2ccccc21,"inconclusive: 29.1 µM [inhibitor, single point]"
24,O=C(NCC(c1ccco1)N1CCCCC1)c1cccs1 (configuration not stated),"inconclusive: 16.4 µM [activator, partial curve, poor fit]"
